Out of some 320,000 compounds screened, about 22,000 (6.9%) were called active. The shares of active, inactive and inconclusive entries below differ from those in the screen. Calls come from the whole dose curve; as a rule, active = well fitted inhibition curve with a large enough effect; inconclusive = small, poorly fitted or top-dose-only effect, or another doubt; inactive = no such curve, though single readings can be large or run the other way. Potencies beside an inconclusive call are fits to weak or partial responses and may not hold up.
test: Primary qHTS for delayed death inhibitors of the malarial parasite plastid, 96 hour incubation; conditions: P. falciparum luciferase reporter growth; series mostly up to 28.7 µM
Procedure, shortened: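 Two parasite generations (96 h, 37 C, 5% CO2) of compound exposure in infected erythrocytes (0.05% parasitemia, 2% hematocrit). Luciferase-reporter P. falciparum; decreased luminescence indicates inhibited growth, aimed at apicoplast-acting delayed death.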
Potency is the fitted concentration of half-maximal effect.

Row | SMILES | Potency
1 | COc1ccc(N(CC(=O)Nc2ccccc2C(=O)NCC(C)C)S(C)(=O)=O)cc1 | inactive
2 | CCOC(=O)CN1C(=O)SC(CC(=O)Nc2nccs2)C1=O (stereo not drawn) | inconclusive: 5.22 µM [inhibitor, single point]
3 | Cc1ccc(C(=O)OCC(=O)N2CCCc3ccccc32)cc1C | inactive
4 | CC(=O)Nc1ccc([N+](=O)[O-])c(CS(=O)(=O)c2ccc(C)cc2)c1[N+](=O)[O-] | inconclusive: 7.38 µM [inhibitor, partial curve]
5 | O=C(CSCCO)Nc1cc(C(F)(F)F)ccc1Cl | inconclusive: 18.5 µM [inhibitor, single point]
6 | C=C1NC(=O)c2cc(CN(C)c3ccc(C(=O)N[C@@H](CCC(=O)O)C(=O)O)s3)ccc2N1 | inconclusive: 19 µM [inhibitor, single point]
7 | O=C(O)/C=C/c1nc(-c2ccccc2)n2ccccc12 | inactive
8 | CCOP(=S)(OCC)SCCSCC | inconclusive: 16.5 µM [inhibitor, single point]
9 | O=C(COC(=O)c1cc(Cl)ccc1[N+](=O)[O-])Nc1cccc2ccccc12 | inconclusive: 4.15 µM [inhibitor, single point]
10 | CC1(C)N(O)C2CCCCC2N1O (stereo not drawn) | inconclusive: 18.5 µM [inhibitor, single point]
11 | COc1ccc(OCc2cc(/C=N\NC(=O)c3ccccc3)ccc2OC)cc1 | inconclusive: 3.29 µM [inhibitor, full curve, poor fit]
12 | Cn1c(=S)[nH]c2sc3c(c2c1=O)CCC(C(C)(C)C)C3 (stereo not drawn) | inconclusive: 0.0657 µM [inhibitor, full curve, poor fit]
13 | O=[N+]([O-])c1cccc(-c2ccc(/C=N/n3c(-c4ccccc4)n[nH]c3=S)o2)c1 | inconclusive: 18.5 µM [inhibitor, single point]
14 | CC1CCN(C(=O)CN2C(=O)C(=O)N(C(C)C)C2=O)c2ccccc2S1 (stereo not drawn) | inactive
15 | CCOc1ccc(C2C(C#N)=C(N)N3C(=C2C#N)Sc2ccccc23)cc1 (stereo not drawn) | inactive
16 | COc1ccc(S(=O)(=O)N2CCOC2CNC(=O)C(=O)NCCc2ccccc2)cc1 (stereo not drawn) | inconclusive: 0.0828 µM [inhibitor, full curve, poor fit]
17 | O=C(CC(C(=O)O)c1cccc(Cl)c1)c1ccccc1 (stereo not drawn) | inactive
18 | S=C(Nc1ccc(Cl)cc1Cl)NC1CCCCC1 | inactive
19 | C/C(=C\c1ccccc1F)C1Nc2cccc3cccc(c23)N1 | inconclusive: 14.7 µM [inhibitor, single point]
20 | CCN(CC)CCCNC(=O)C1c2cc(OC)c(OC)cc2C(=O)N(C)C1c1cccs1 (stereo not drawn) | inconclusive: 10.4 µM [inhibitor, single point]
21 | CCOc1cnc(-c2ccccc2F)o1 | inconclusive: 0.0003 µM [inhibitor]
22 | COc1ccc(S(=O)(=O)Nc2ccccc2C(=O)NCc2cccnc2)cc1OC | inactive
23 | O=C(c1ccc([N+](=O)[O-])o1)N1CCc2ccccc2C1 | active: 5.22 µM

Row | SMILES | Potency
24 | Cc1ccc(C(=O)NNC(=O)CSc2nnc(-c3ccncc3)n2-c2ccc(C)cc2)cc1 | inactive
25 | C=CCSc1nc2c(c(=O)[nH]c(=O)n2C)n1Cc1ccc(C)cc1 | inconclusive: 4.15 µM [inhibitor, single point]
26 | CCOc1ccc(S(=O)(=O)Nc2ccc(C(=O)NCC(c3ccco3)N3CCCCC3)cc2)cc1 (stereo not drawn) | inconclusive: 16.5 µM [inhibitor, single point]
27 | O=C(O)c1ccc(N/C(=N\S(=O)(=O)c2ccc(Cl)cc2)c2ccccc2)cc1 | inconclusive: 6.57 µM [inhibitor, partial curve, poor fit]
28 | Cc1ccc(C)c(S(=O)(=O)Nc2ccc(C(=O)NCC(c3ccco3)N3CCCCC3)cc2)c1 (stereo not drawn) | inconclusive: 10.4 µM [inhibitor, partial curve, poor fit]
29 | CCCc1nnc(SCC(=O)N2CCCCC2C)n1CCOC (stereo not drawn) | inconclusive: 18.5 µM [inhibitor, single point]
30 | O=C(NCC(c1ccc(F)cc1)N1CCOCC1)c1cc(F)c(F)c(F)c1F (stereo not drawn) | inactive
31 | N=C1SC(CC(=O)Nc2ccccc2[N+](=O)[O-])C(=O)N1c1ccccc1 (stereo not drawn) | inconclusive: 16.5 µM [inhibitor, single point]
32 | O=C(N/N=C/c1ccc(F)cc1)c1cccc(NC(=O)c2ccc(F)cc2)c1 | inconclusive: 9.28 µM [inhibitor, single point]
33 | O=C(c1nc2ccc(Cl)cn2c1CN1CCC(CO)CC1)N1CCc2ccccc2C1 | inconclusive: 2.08 µM [inhibitor, partial curve, poor fit]
34 | CC1(C)SC(=S)N(Cc2ccc3c(c2)OCO3)C1N(O)C(=O)NC1CCCCC1 (stereo not drawn) | inconclusive: 9.28 µM [inhibitor, single point]
35 | COc1cc(OC)c2c(-c3ccccc3)cc(=O)oc2c1C(CC(=O)N1CCOCC1)c1ccc2c(c1)OCO2 (stereo not drawn) | inconclusive: 18.5 µM [inhibitor, single point]
36 | COC(=O)C1=C(C)N(c2ccc(F)cc2)/C(=C/c2ccc(O)cc2)C1=O | inconclusive: 8.28 µM [inhibitor, partial curve, poor fit]
37 | N=C1/C(=C\c2ccc(SCc3ccccc3)o2)C(=O)N=C2SC(CC(=O)N3CCOCC3)=NN12 | inconclusive: 18.5 µM [inhibitor, single point]
38 | COc1ccc(CCNC(=O)CCCn2ncn3c(cc4occc43)c2=O)c(OC)c1 | inconclusive: 9.28 µM [inhibitor, partial curve]
39 | NS(=O)(=O)c1ccc(NC(=S)Nc2ccc(Br)c(Cl)c2)cc1 | inconclusive: 18.5 µM [inhibitor, single point]
40 | CC(C)[C@H](NC(=O)c1c(F)cccc1F)C(=O)N1CCN(c2ccc(F)cc2)CC1 | inconclusive: 6.57 µM [inhibitor, partial curve, poor fit]
41 | O=C(N/N=C/c1cccc(O)c1)NC1CCCCC1 | inactive
42 | Cc1ccc(Nc2ccccc2)cc1 | inconclusive: 13.1 µM [inhibitor, single point]
43 | Cc1cc(Cn2nc(C(=O)NCc3cccc(C(F)(F)F)c3)cc2-c2ccccc2)on1 | inconclusive: 11.7 µM [inhibitor, single point]
44 | O=C(COc1ccc(S(=O)(=O)N2CCCC2)cc1Cl)NCc1cccnc1 | inconclusive: 18.5 µM [inhibitor, single point]
45 | Cc1c(Cl)cccc1NC(=S)NC1CCN(Cc2ccccc2)CC1 | inconclusive: 7.38 µM [inhibitor, partial curve, poor fit]
46 | CCOc1ccc(OCC(O)CNC2CCN(Cc3ccccc3)CC2)cc1 (stereo not drawn) | active: 2.33 µM

Row | SMILES | Potency
47 | COc1ccccc1NC(=O)C1CCCN(c2ncnc3c2nc2n3CCCCC2)C1 (stereo not drawn) | inconclusive: 3.29 µM [inhibitor, partial curve]
48 | Cc1nc(N)sc1C(=O)N1N=N1 | inactive
49 | CCOc1cccc(C(=O)Nc2ccncc2)c1 | inactive
50 | CC(/C=C1\SC(=S)N(CC(=O)O)C1=O)=C\c1ccccc1 | inactive
51 | COc1ccc(-c2sc(Nc3ccccc3)n[n+]2-c2ccccc2)cc1Br | inconclusive: 10.4 µM [inhibitor, single point]
52 | O=C(c1ccc(S(=O)(=O)c2ccccc2)cc1)N1CCc2ccccc2C1 | inactive
53 | CCC(C)c1ccc(OCC(=O)Nc2ccc(CN3CCOCC3)cc2)cc1 (stereo not drawn) | inactive
54 | CC(=O)N(Cc1cc(=O)[nH]c2ccccc12)c1cccc(C)c1 | inconclusive: 18.5 µM [inhibitor, single point]
55 | CC(C)C(C(=O)N1CCOCC1)N1C(=O)c2ccccc2C1=O (stereo not drawn) | active: 10.4 µM
56 | O=C(NC(=O)c1ccccc1)OCCN1C(=O)c2ccccc2C1=O | inconclusive: 4.15 µM [inhibitor, partial curve, poor fit]
57 | NC(=O)Cn1cc(C(=O)c2cccs2)c2ccccc21 | inconclusive: 7.38 µM [inhibitor, partial curve, poor fit]
58 | COC(=O)[C@]12OC[C@]34C([C@@H](O)[C@@H]1O)[C@]1(C)CC(=O)C(O)=C(C)[C@@H]1C[C@H]3OC(=O)[C@H](O)[C@@H]24 (stereo partly drawn) | active: 1.04 µM
59 | Cc1ccc(COc2ccc(-c3nnco3)cc2)cc1 | inactive
60 | Cc1cc(C)n(CCN(C)Cc2cn[nH]c2-c2ccc(F)cc2F)n1 | inconclusive: 8.28 µM [inhibitor, partial curve]
61 | CCOCCCNCc1ccc(OCc2ccccc2Cl)cc1 | inconclusive: 9.28 µM [inhibitor, single point]
62 | O=S(=O)(Cc1ccccc1)NCC1CCCN(Cc2ccc(F)c(F)c2)C1 (stereo not drawn) | inconclusive: 4.15 µM [inhibitor, partial curve, poor fit]
63 | Cc1oc2c(CN3CCCCC3C)c(O)ccc2c(=O)c1-c1ccc(Br)cc1 (stereo not drawn) | active: 13.1 µM
64 | O=C(CSc1nnc(C2CCCCC2)n1-c1ccccc1)NCc1ccco1 | inactive
65 | CCCC(=O)O[C@H]1C[C@@H](C)N(C(=O)c2ccccc2)c2ccc(C)cc21 | inconclusive: 16.5 µM [inhibitor, single point]
66 | CCC(=O)N1c2ccc(S(=O)(=O)CCC(=O)N3CCN(c4ccccc4F)CC3)cc2CC1C (stereo not drawn) | inconclusive: 18.5 µM [inhibitor, single point]
67 | Fc1ccccc1OCCCCN1CCCCC1 | inconclusive: 4.65 µM [inhibitor, partial curve]
68 | Cc1ccc(C)c(NC(=S)N(Cc2ccc(Cl)cc2)Cc2ccc(C(=O)O)cc2)c1 | inconclusive: 4.65 µM [inhibitor, partial curve, poor fit]

By substructure, the compounds so far with a CF3 group
Row | SMILES | Potency
5 | O=C(CSCCO)Nc1cc(C(F)(F)F)ccc1Cl | inconclusive: 18.5 µM [inhibitor, single point]
43 | Cc1cc(Cn2nc(C(=O)NCc3cccc(C(F)(F)F)c3)cc2-c2ccccc2)on1 | inconclusive: 11.7 µM [inhibitor, single point]
